From PubChem BioAssay AID1487 (National Center for Advancing Translational Sciences (NCATS), 2009)
The list shows a part of the results. Shown are side measurements of this screen, not its main read-out; they come without a call. Compounds called inactive in the main read-out are mostly missing here. Potencies come from curve fits of mixed quality, noted in brackets.

Assay: qHTS Assay for Modulators of Lamin A Splicing
Conditions: HeLa LMNA splicing GFP/RFP minigene ratio, 48 h
Method in brief: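 S3 HeLa stable clones carrying a lamin A-EGFP splicing minigene plus DsRed2 were seeded at 600 cells/well in Opti-MEM with 2% FBS, pin-dosed and incubated 48 h at 37°C. Acumen cytometry (488 nm) gave the GFP/RFP total-intensity ratio.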

[1] = measured here: GFP splicing reporter channel
[2] = measured here: RFP viability control channel

Row | SMILES | AC50 [1] | AC50 [2]
1 | O=c1ccnc(SCn2nnc3ccccc3c2=O)[nH]1 | 12.6 µM [falling, partial curve] | 5.01 µM [falling, partial curve]
2 | CCC(=O)NCCC1CCc2ccc3c(c21)CCO3 (centres undefined) | 35.5 µM [falling, single point] | 
3 | O=C(/C=C/c1ccccc1)NC(NC(=S)Nc1ccc(Cl)cc1Cl)C(Cl)(Cl)Cl (centres undefined) |  | 22.4 µM [rising, single point]
4 | CC(=O)N1N=C(c2ccc(NS(C)(=O)=O)cc2)CC1c1ccc2nccnc2c1 (centres undefined) | 0.178 µM [rising, full curve, poor fit] | 
5 | Cc1nc(SCC(=O)NC(C)(C)C)c2c(-c3cccs3)csc2n1 | 15.8 µM [rising, single point] | 35.5 µM [rising, single point]
6 | C/C(=N\NC(=O)CCc1c[nH]c2ccccc12)c1ccc([N+](=O)[O-])cc1 | 20 µM [rising, partial curve, poor fit] | 35.5 µM [rising, single point]
7 | COc1ccc(Nc2nc3c(C)cccn3c(=O)c2C=NCc2ccccc2)cc1 | 3.16 µM [falling, single point] | 
8 | COc1ccc(CCNC(=O)c2cc3sc(Cl)cc3n2C)cc1OC |  | 25.1 µM [rising, single point]
9 | O=S1(=O)C=C(Sc2nc3ccccc3s2)c2ccccc21 | 3.16 µM [falling, full curve] | 6.31 µM [falling, full curve]
10 | COc1ccc(S(=O)(=O)N2CCC(n3cnc4cc(C(F)(F)F)ccc43)CC2)cc1 |  | 15.8 µM [rising, partial curve]
11 | CC1(C)Cc2ccccc2C(/C(=N\Nc2cccc(Cl)c2)C(N)=O)=N1 | 35.5 µM [falling, single point] | 35.5 µM [falling, single point]
12 | CC1(C)N=C(N)N=C(N)N1c1ccccc1 |  | 22.4 µM [rising, single point]
13 | COCc1cc(C)nc(SCC(=O)c2ccc(O)c(O)c2)c1C#N |  | 35.5 µM [rising, single point]
14 | CCC1=Nc2cc(C(=O)NCc3ccccc3Cl)ccc2Sc2ccc(C)cc21 |  | 5.62 µM [rising, partial curve, poor fit]
15 | Cc1nc(Oc2cccc(Cl)c2)c2oc3ccccc3c2n1 |  | 22.4 µM [rising, single point]
16 | Cc1ccc(Cl)cc1-n1ncc2c(NC3CCCCC3)ncnc21 | 0.0112 µM [falling, full curve, poor fit] | 
17 | CCOC(=O)c1c(C)[nH]c(CCC(=O)Nc2c(Cl)cc(OC)cc2OC)c1C |  | 3.16 µM [rising, partial curve]
18 | CC(C)N1CCN(Cc2cccc(-n3cccn3)c2)CC1CCO (centres undefined) |  | 0.316 µM [falling, full curve]
19 | COc1ccc(-c2nc(C#N)c(N3CCCCCC3)o2)cc1 |  | 31.6 µM [rising, single point]

Rewritten in markdown: entries from further up.

| Row | SMILES | AC50 [1] | AC50 [2] |
| --- | --- | --- | --- |
| 16 | Cc1ccc(Cl)cc1-n1ncc2c(NC3CCCCC3)ncnc21 | 0.0112 µM [falling, full curve, poor fit] |  |
| 17 | CCOC(=O)c1c(C)[nH]c(CCC(=O)Nc2c(Cl)cc(OC)cc2OC)c1C |  | 3.16 µM [rising, partial curve] |

Carrying on:

Row | SMILES | AC50 [1] | AC50 [2]
20 | COc1ccccc1-c1cc(N)n(S(=O)(=O)c2ccc(F)c(C)c2)n1 |  | 35.5 µM [rising, single point]
21 | CC(C)(C)OC(=O)N[C@@H](Cc1ccccc1)c1nnc(S(=O)(=O)Cc2ccccc2)o1 | 11.2 µM [falling, partial curve] | 25.1 µM [falling, single point]
22 | COc1ccc(CNC(=O)Cn2c(=O)nc(-c3ccccc3F)c3cc(Cl)ccc32)cc1OC | 35.5 µM [falling, single point] | 
23 | c1cn(-c2cc(-c3ccc4c(c3)OCO4)ncn2)cn1 | 35.5 µM [falling, single point] | 35.5 µM [falling, single point]
24 | COC(=O)c1ccc(S(=O)(=O)N2C3CCC2CC(NC(=O)C2CC2)C3)cc1 (centres undefined) | 2.51 µM [falling, partial curve, poor fit] | 3.98 µM [falling, partial curve]
25 | COc1cc2c(cc1NC(=S)Nc1cccc(C(F)(F)F)c1)oc1ccccc12 |  | 11.2 µM [rising, partial curve]
26 | Cc1cccc(C(=O)N2CCc3cc(CNC(=O)c4ccc(Br)o4)ccc32)c1 | 35.5 µM [falling, partial curve, poor fit] | 0.0562 µM [falling, full curve, poor fit]
27 | O=C(Nc1cccc(F)c1)c1ccc(S(=O)(=O)NCC2CCCO2)cc1 (centres undefined) |  | 12.6 µM [rising, partial curve]
28 | CCC(CC)C(=O)Nc1cccc(C(=O)Nc2ccc(S(=O)(=O)Nc3ccc(C)cc3)cc2)c1 | 15.8 µM [falling, single point] | 35.5 µM [falling, single point]
29 | O=C(CSc1ncn[nH]1)NN(c1ccccc1)c1ccccc1 |  | 31.6 µM [falling, single point]
30 | COc1ccc(OC)c(-n2nnnc2SCC(=O)Nc2ccc(C(=O)N3CCCCC3)cc2)c1 |  | 35.5 µM [rising, single point]
31 | Cc1cc(/C=N/Nc2nc(N3CCOCC3)nc(N3CCOCC3)n2)c(C)n1-c1ccccc1 | 0.0562 µM [rising, full curve, poor fit] | 
32 | CC(C)(C)OC(=O)N1CCC(c2c(C(=O)NCc3ccccc3)cnn2-c2ccccc2)CC1 |  | 0.251 µM [rising, full curve, poor fit]
33 | CC(C)(C)NC(=O)NC(=O)COC(=O)Cc1ccc(Cl)cc1Cl | 39.8 µM [falling, partial curve, poor fit] | 
34 | Cn1c(CCN2CCOCC2)nc2cc(NC(=O)c3cccs3)ccc21 |  | 15.8 µM [rising, partial curve]
35 | COc1ccc(/C=C2\SC(=O)N(CCNC(=O)Cn3cnnn3)C2=O)cc1 | 5.01 µM [falling, single point] | 4.47 µM [falling, single point]
36 | Cc1ccc2nc(SC(C(=O)Nc3ccc(F)cc3)c3ccccc3)[nH]c2c1 (centres undefined) |  | 35.5 µM [rising, single point]
37 | CCNS(=O)(=O)c1ccc(NC(=O)c2ccccc2)cc1 |  | 12.6 µM [rising, single point]
38 | COc1ccc(Nc2nc(NCC3CCCO3)c3ccccc3n2)c(OC)c1 (centres undefined) |  | 35.5 µM [rising, single point]

Row | SMILES | AC50 [1] | AC50 [2]
39 | CCc1ccc(NC(=O)CSc2nc3c(sc4ccccc43)c(=O)n2CCCOC)cc1 | 0.0501 µM [rising, full curve] | 
40 | O=C(Nc1nnc(-c2ccc(F)cc2)o1)c1cccc([N+](=O)[O-])c1 |  | 10 µM [rising, partial curve]
41 | COc1ccc(C(=O)NCC(c2ccc(N(C)C)cc2)N2CCCC2)cc1 (centres undefined) |  | 0.794 µM [falling, single point]
42 | CC(C)(C)n1ncc(Oc2ccccc2[N+](=O)[O-])c(Cl)c1=O |  | 12.6 µM [rising, partial curve]
43 | Cc1nn2c(C(F)(F)F)c3c(nc2c1-c1ccccc1)CCC3 | 35.5 µM [rising, single point] | 
44 | COc1ccc(COc2cc(-c3cccc(OC)c3)nc3ccc(NC(=O)c4ccc(C)cc4)cc23)cc1 | 15.8 µM [rising, single point] | 12.6 µM [rising, partial curve]
45 | CC/C(=N\n1nnnc1Nc1ccccc1)c1ccccc1 | 14.1 µM [rising, single point] | 22.4 µM [rising, single point]
46 | CC(C)c1ccc(Nc2ncnc3c2nc2n3CCCC2)cc1 |  | 31.6 µM [rising, partial curve]
47 | O=C(c1ccc(Cl)cc1)c1ccc(CN2C(=O)c3ccccc3C2=O)o1 | 35.5 µM [rising, single point] | 
48 | Cc1c(Cl)c(C(=O)NNC(=S)Nc2ccc(F)cc2)nn1C |  | 0.0316 µM [falling, full curve, poor fit]
49 | COc1ccc(Cn2c(O)c(C=Nc3ccc(C)cc3)c3ccccc3c2=O)cc1 | 14.1 µM [rising, single point] | 11.2 µM [rising, partial curve]
50 | COc1ccc(NC(=O)Nc2cccc(OCc3cc(=O)n4cccc(C)c4n3)c2)c(OC)c1 | 0.398 µM [rising, full curve, poor fit] | 1.58 µM [rising, partial curve]
51 | O=C1C2C3C=CC(C4CC34)C2C(=O)N1/N=C/c1ccc(-c2ccc([N+](=O)[O-])cc2)o1 (centres undefined) |  | 0.112 µM [falling, full curve, poor fit]
52 | O=S(=O)(c1ccc2[nH]c3c(c2c1)CCCC3)N1CCN(c2cccc(C(F)(F)F)c2)CC1 | 11.2 µM [rising, single point] | 11.2 µM [rising, partial curve]
53 | NC(=O)C1CCN(C(=O)CSc2ccsc2[N+](=O)[O-])CC1 |  | 15.8 µM [rising, single point]
54 | COC(=O)c1cccc(S(=O)(=O)N2CCC(NC(=O)NC34CC5CC(CC(C5)C3)C4)CC2)c1 | 10 µM [rising, partial curve, poor fit] | 14.1 µM [rising, partial curve]
55 | COc1ccc(N/C=C/C(=O)c2sc(-c3ccccc3)nc2C)cc1 | 35.5 µM [falling, single point] | 35.5 µM [falling, single point]
56 | S=C(NCc1ccco1)Nc1cc(-c2ccccc2)[nH]n1 |  | 35.5 µM [falling, single point]
